# Data reported in publication PMC5391204.
# No constants are given. Whether binding was seen depends on the method and setting. In cells and extracts the contact can be indirect. Some entries that bind do so weakly or less than the wild type. Sequences can lack the tags named with a protein.
# T1: FLAG-tagged CCDC115 (human) (UniProt Q96NT0)
# T1 sequence: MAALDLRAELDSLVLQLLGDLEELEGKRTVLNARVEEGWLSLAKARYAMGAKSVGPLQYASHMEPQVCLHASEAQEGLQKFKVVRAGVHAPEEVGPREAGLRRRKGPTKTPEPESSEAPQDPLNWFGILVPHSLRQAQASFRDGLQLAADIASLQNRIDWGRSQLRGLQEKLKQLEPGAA
# B1: TMEM199 (protein, UniProt Q8N511 1-208)
# chain: MASSLLAGERLVRALGPGGELEPERLPRKLRAELEAALGKKHKGGDSSSGPQRLVSFRLIRDLHQHLRERDSKLYLHELLEGSEIYLPEVVKPPRNPELVARLEKIKIQLANEEYKRITRNVTCQDTRHGGTLSDLGKQVRSLKALVITIFNFIVTVVAAFVCTYLGSQYIFTEMASRVLAALIVASVVGLAELYVMVRAMEGELGEL
# Target: T1, FLAG-tagged CCDC115 (human)
# Test: co-IP; HeLa cells lysed in 1% NP-40, TBS, diluted to 0.1% detergent; anti-FLAG M2 magnetic beads, 3 hr at 4°C; eluted with FLAG peptide; immunoblot for endogenous TMEM199; wildtype or TMEM199 deficient cells; unrelated FLAG tagged protein as control
binder,measurement,value
B1,binding,binds
